Results: patent US20190367843A1, “ANTIMICROBIAL SURFACE CLEANSERS AND BIOSTATIC COATINGS FOR REMOVABLE DENTAL PROSTHETIC APPLIANCES AND ORAL DEVICES” (CLEARSTREAM TECHNOLOGIES LLC, priority 2018, published 2019)

Assay: Bromophenol blue test for SiQAC bonded to PMMA coupon surface
Conditions: Table 2 composition 1:50

## CCCCCCCCCCCCCCCCCC[N+](C)(C)CCC[Si](OC)(OC)OC.[Cl-] [SiQAC, 3-(trimethoxysilyl) propyldimethyloctadecyl ammonium chloride]
PMMA coupons after first soak and brushing
  bromophenol blue colour of coupon surface (onset of film formation): turned blue
PMMA coupons after tenth soak/brush cycle
  bromophenol blue colour of coupon surface (presence of SiQAC bonded to the surface): turned blue
